Results: PubChem BioAssay AID504594 (Broad Institute, 2011)
The campaign covered roughly 2,000 compounds. Fewer than 10 were called active.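 Rule for the calls: active = growth inhibition of at least 75% in every replicate, which also brings the mean inhibition to 75% or more; inconclusive = mean inhibition 75% or more but some replicate under 75%; inactive = the rest.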 The list shows a part of the results.

Assay: growth inhibition of PfHsp90-dependent yeast, primary screen, antimalarial PfHsp90 inhibitor project, S. cerevisiae, BacTiter-Glo luminescence (AID 504594);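 note: 0% = DMSO neutral control wells and 100% = 20 µM radicicol control wells; higher value means stronger growth inhibition because the sign is flipped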
Details: S. cerevisiae expressing PfHsp90, BacTiter-Glo growth, 48 h; at 9.4 µM; stronger effect = higher value

| SMILES | growth inhibition |
| --- | --- |
| O=CNC1CCCc2c1[nH]c1ccc(Cl)cc21 (configuration not stated) | inactive: -7.59% |
| CCCC(=O)O[C@]1(C(=O)CO)CC[C@H]2[C@@H]3CCC4=CC(=O)CC[C@]4(C)[C@H]3[C@@H](O)C[C@@]21C | inactive: -0.235% |
| O=c1cc(CN2CCN(c3cccc(Cl)c3)CC2)c2cc(O)c(-c3ccccc3)cc2o1 | inactive: 5.17% |
| COc1ccc2oc(=O)c(-c3nc(C)cs3)cc2c1 | inactive: -1.87% |
| COc1cc2c(cc1OC)C1(CCCCC1)CN(C)C2 | inactive: -3.79% |
| O=c1[nH]c(=O)n([C@H]2C[C@H](O)[C@@H](CO)O2)cc1C(F)(F)F | inactive: 13.3% |
| CC(C)C(=O)Nc1ccc2c3c(cccc13)CC2 | inactive: -6.87% |
| Cc1nnc(SCC2=C(C(=O)O)N3C(=O)[C@@H](NC(=O)Cn4cnnn4)[C@H]3SC2)s1 | inactive: 0.906% |
| CCCCCCCCNC(C)C(O)c1ccc(SC(C)C)cc1 (configuration not stated) | inactive: 0.856% |
| CC(=O)CC(c1ccc([N+](=O)[O-])cc1)c1c(O)c2ccccc2oc1=O (configuration not stated) | inactive: -2.05% |
| c1ccc(SSc2ccccc2)cc1 | inactive: -0.853% |
| COc1ccc2[nH]c(C)c(CN3CCC(C)CC3)c(=O)c2c1 | inactive: -1% |
| Cc1ccccc1C(=O)NCC(=O)O | inactive: 2.47% |
| CC12COC3(C(=O)Nc4ccc(F)cc4)CC1CCC32C (configuration not stated) | inactive: -8.1% |
| COc1ccc2c(c1)C=CC1(O2)N(CCO)c2ccccc2C1(C)C (configuration not stated) | inactive: -0.327% |
| O=Cc1ccc(N2CCCCC2)cc1 | inactive: -3.18% |
| C[C@]12CC[C@H]3[C@@H](CCC4=CC(=O)CC[C@@]43C)[C@@H]1CC[C@@H]2C(=O)CO | inactive: 2.84% |
| COc1cc(C=NCC2OCCc3ccccc32)cc(OC)c1 (configuration not stated) | inactive: -7.45% |
| COc1cc(NS(=O)(=O)c2ccc(N)cc2)nc(OC)n1 | inactive: 12.1% |
| O=C(O)c1cc(-c2ccc3c(c2)OCO3)nc2ccc(Br)cc12 | inactive: 0.979% |
| O=C(c1ccco1)N1CCCN(Cc2nc(-c3ccc4c(c3)OCO4)no2)CC1 | inactive: 4.02% |
| CC(C)c1ccc(OCc2ccc(C(=O)O)o2)cc1 | inactive: -8.18% |
| COc1ccc(C2=CC(=O)C=CC2=O)cc1 | inactive: 4.33% |
| CCOC(=O)c1ccc(N2C(=O)C(CC(=O)NC)N(CCc3ccc(OC)c(OC)c3)C2=S)cc1 (configuration not stated) | inactive: 8.13% |
| CCOC(=O)c1ccc(NC(=S)NCCc2ccccc2F)cc1 | inactive: -13% |

| SMILES | growth inhibition |
| --- | --- |
| NC(=O)N1c2ccccc2CC(=O)c2ccccc21 | inactive: -9.53% |
| CC12CCC(C(=O)Nc3ccccc3Br)(C/C1=N\O)C2(C)C (configuration not stated) | inactive: -9.28% |
| CC12CCC(C(=O)N3CCc4ccccc43)(CC1=O)C2(C)C (configuration not stated) | inactive: -7.62% |
| Cc1nc(C)c(C)nc1C | inactive: 3.66% |
| CC(=O)N(C(C)=O)c1nc2nc(C)cc(C)n2n1 | inactive: -7.83% |
| COc1cc2cc(C(=O)O)[nH]c2c(OC)c1OC | inactive: 0.163% |
| O=C(CC(C(=O)O)c1c[nH]c2ccccc12)c1ccccc1 (configuration not stated) | inactive: 7.06% |
| Cc1oc2cc(O)ccc2c(=O)c1Oc1ccccc1Br | inactive: -0.452% |
| CC(=O)NCCCCCCNC(C)=O | inactive: 8.45% |
| CC(C)Cc1ccc(C(C)C(=O)Nc2ccc(O)cc2)cc1 (configuration not stated) | inactive: -4.11% |
| CC(C)OC(=O)CC1C(=O)NCCN1C(=S)NC(=O)c1ccccc1Cl (configuration not stated) | inactive: -7.62% |
| C(=C/c1nccc2c1[nH]c1ccccc12)/c1ccc2c(c1)OCO2 | inactive: 7.32% |
| OCC1CCN(Cc2cn(Cc3ccccc3)nc2-c2cc3ccccc3o2)CC1 | inactive: -1.56% |
| CC1(C)Cc2ccccc2-c2n[nH]c(=S)n21 | inactive: -11.6% |
| CC1CCCC(C)N1NC(=O)c1ccc(Cl)c(S(N)(=O)=O)c1 (configuration not stated) | inactive: 1.06% |
| Nc1nnc(-c2cccc(Cl)c2Cl)c(N)n1 | inactive: -27.1% |
| COc1ccccc1CCn1cnc2c3cc(C)ccc3n(C)c2c1=O | inactive: 21.2% |
| COc1ccc2c(c1)c(=O)oc1cc3occ(C(C)(C)C)c3cc12 | inactive: 1.48% |
| CC(=O)O[C@]1(C(C)=O)CC[C@H]2[C@@H]3C=C(C)C4=CC(=O)CC[C@]4(C)[C@H]3CC[C@@]21C | inactive: 22.4% |
| CC(=O)/C=C/c1ccc(C)o1 | inactive: 1.43% |
| C=CCOC(=O)C1=C(C)NC(=O)NC1/C=C/c1ccccc1OC (configuration not stated) | inactive: 4.04% |
| O=C(/C=C/c1ccc2c(c1)OCCCO2)c1ccc2ccccc2c1O | inactive: -2.27% |
| Nc1nnc(CSCc2ccc(Cl)cc2Cl)s1 | inactive: 13.1% |
| Cc1[nH]c2ccccc2c1C(=O)C(=O)NCc1ccco1 | inactive: 5.84% |
| Cc1ccc(S(=O)(=O)NC(C(=O)Oc2cc3oc(=O)cc(C)c3cc2Cl)C(C)C)cc1 (configuration not stated) | inactive: -8.73% |

| SMILES | growth inhibition |
| --- | --- |
| Cc1cnc(N)c2c(=O)oc3ccccc3c12 | inactive: -7.04% |
| CCC(=O)Oc1ccc(C(=O)Nc2ccc([N+](=O)[O-])cc2)cc1 | inactive: -1.57% |
| COCCN(CCOC)Cc1c(C)[nH]c2c(C)c(C)ccc2c1=O | inactive: 8.21% |
| CS(=O)(=O)c1cccc(C(=O)Oc2ccccc2)c1 | inactive: 11.1% |
| CC(=O)OCC(=O)[C@@]12OC3(CCCC3)O[C@@H]1C[C@H]1[C@@H]3CCC4=CC(=O)C=C[C@]4(C)[C@@]3(F)[C@@H](O)C[C@@]12C | inactive: -4.08% |
| CCCC(=O)Nc1ccc(OCC(O)CNC(C)C)c(C(C)=O)c1 (configuration not stated) | inactive: 2.39% |
| CCn1c(C)cc2c(c1=O)C(c1ccccc1)C(C(=O)OC)=C(N)O2 (configuration not stated) | inactive: -22% |
| NC(=O)c1c(-c2ccccc2)oc2ccc(O)cc12 | inactive: 15.6% |
| COc1ccc(C2C3CCCCC3(O)CCN2C(=O)c2cccs2)cc1 (configuration not stated) | inactive: 13.6% |
| O=c1c(-c2ccccc2)c(O)c2cccc3c2n1CCC3 | inactive: -4.59% |
| COc1ccc(C2=NOC(COc3ccc4c(C)cc(=O)oc4c3)C2)c(OC)c1 (configuration not stated) | inactive: -0.922% |
| C#CCN1C(=O)C(O)(CC(=O)c2ccc(OC)c(OC)c2)c2ccccc21 (configuration not stated) | inactive: 2.67% |
| CCCCC1C(=O)N(c2ccccc2)N(c2ccccc2)C1=O | inactive: 1.62% |
| COc1ccccc1/C=C/C(=O)OCCN1CCOCC1 | inactive: 6.29% |
| COc1ccc(S(=O)(=O)NC(Cc2cnc[nH]2)C(=O)O)cc1 (configuration not stated) | inactive: -8.95% |
| CN(C)CCOc1ccccc1Cc1ccccc1 | inactive: 4.61% |
| CC1/C(=C\c2ccc(Cl)cc2)C(=O)C2CC1C2(C)C (configuration not stated) | inactive: -4.13% |
| CC1=CC(=O)c2ccccc2C1=O | inactive: -4.75% |
| CCOc1ccc(C(NC(C)=O)c2ccc(OC)c(OC)c2)cc1 (configuration not stated) | inactive: -1.83% |
| CC1(c2ccccc2)CC(C)(C)N2C(=O)C(=O)c3cccc1c32 (configuration not stated) | inactive: -3.23% |
| CCOc1ccc2nc(N/C(N)=N/S(C)(=O)=O)nc(C)c2c1 | inactive: 2.51% |
| CC[C@]1(O)C[C@@H]2CN(CCc3c([nH]c4ccccc34)[C@@](C(=O)OC)(c3cc4c(cc3OC)N(C)[C@H]3[C@@](O)(C(=O)OC)[C@H](OC(C)=O)[C@]5(CC)C=CCN6CC[C@]43[C@@H]65)C2)C1 | inactive: 1.01% |
| CN(C)CCOC(c1ccccc1)c1ccccc1 (tested in a mixture with another compound) | inactive: 4.07% |
| CCN(CCCc1ccccc1)CCCc1ccccc1 | inactive: -1.49% |
| COc1ccc(C2c3c(n[nH]c3C)CC(C)(O)C2C(C)=O)cc1OC (configuration not stated) | inactive: 7.08% |

| SMILES | growth inhibition |
| --- | --- |
| CC12CCC(C(=O)N(CCC#N)CCC#N)(CC1=O)C2(C)C (configuration not stated) | inactive: -0.835% |
| Nc1ccc(N=Nc2ccccc2)c(N)n1 | inactive: 3.56% |
| CCN(CC)C(=O)N1CCN(C)CC1 | inactive: -2.34% |
| CC(C)COc1ccc(Cc2cnc(N)nc2N)cc1 | inactive: -8.61% |
| COc1ccc(C2NC(=O)c3ccccc3O2)c(OC)c1OC (configuration not stated) | inactive: -13.1% |
| O=C1CCCN1C(=O)CCC(=O)N1CCCC1=O | inactive: -0.847% |
| Cc1cccc2c(C(=O)O)cc(-c3cccnc3)nc12 | inactive: -1.78% |
| O=C(O)CCCCCNC(=O)Nc1ccc2c(c1)OCCO2 | inactive: 4.34% |
| O=C(CC(NC(=O)OCc1ccccc1)C(=O)O)OCc1ccccc1 (configuration not stated) | inactive: 0.482% |
| CC(C)(C)C(=O)NC(=S)Nc1sc2c(c1C(N)=O)CCC2 | inactive: -6.01% |
| COC(=O)C1=C(C)N(Cc2ccco2)C(=O)/C1=C\c1ccc([N+](=O)[O-])cc1 | inactive: 5.82% |
| Cc1ccc(S(=O)(=O)N[C@@H](C)C(=O)N2CCC(C(=O)N3CCC[C@H]3C(=O)O)CC2)cc1 | inactive: 10.6% |
| CC1(C)Cc2ccccc2-c2nc(-c3ccccc3)oc(=O)c21 | inactive: 4.05% |
| COc1c(C=O)c(CCN(C)C(=O)c2ccc(F)cc2)cc2c1OCO2 | inactive: 5.71% |
| CCOCCCNCc1cn(-c2ccc(F)cc2F)nc1-c1ccccc1C | inactive: 5.3% |
| CCOC(=O)c1cccc(P(C)(C)=O)c1 | inactive: 4.89% |
| C=CC1=C(C(=O)O)N2C(=O)C(NC(=O)Cc3ccccc3)C2SC1 (configuration not stated) | inactive: -7.86% |
| C=CCc1ccccc1OCC(O)CNC(C)C (configuration not stated) | inactive: -1.09% |
| O=C(Cc1ccccc1)NNC(=O)Cc1ccccc1 | inactive: 7.69% |
| CCCCOc1ccc(CC(=O)NO)cc1 | inactive: 0.384% |
| CC(=O)OC(C)C[N+](C)(C)C (configuration not stated) | inactive: -2.62% |
| Cc1ccccc1OCC(O)CN1CCN(C)CC1 (configuration not stated) | inactive: 2.9% |

Grouped by structure, those above with sulfur

| SMILES | growth inhibition |
| --- | --- |
| COc1ccc2oc(=O)c(-c3nc(C)cs3)cc2c1 | inactive: -1.87% |
| Cc1nnc(SCC2=C(C(=O)O)N3C(=O)[C@@H](NC(=O)Cn4cnnn4)[C@H]3SC2)s1 | inactive: 0.906% |
| CCCCCCCCNC(C)C(O)c1ccc(SC(C)C)cc1 (configuration not stated) | inactive: 0.856% |
| c1ccc(SSc2ccccc2)cc1 | inactive: -0.853% |
| COc1cc(NS(=O)(=O)c2ccc(N)cc2)nc(OC)n1 | inactive: 12.1% |
| CCOC(=O)c1ccc(N2C(=O)C(CC(=O)NC)N(CCc3ccc(OC)c(OC)c3)C2=S)cc1 (configuration not stated) | inactive: 8.13% |
| CCOC(=O)c1ccc(NC(=S)NCCc2ccccc2F)cc1 | inactive: -13% |
| CC(C)OC(=O)CC1C(=O)NCCN1C(=S)NC(=O)c1ccccc1Cl (configuration not stated) | inactive: -7.62% |
| CC1(C)Cc2ccccc2-c2n[nH]c(=S)n21 | inactive: -11.6% |
| CC1CCCC(C)N1NC(=O)c1ccc(Cl)c(S(N)(=O)=O)c1 (configuration not stated) | inactive: 1.06% |
| Nc1nnc(CSCc2ccc(Cl)cc2Cl)s1 | inactive: 13.1% |
| Cc1ccc(S(=O)(=O)NC(C(=O)Oc2cc3oc(=O)cc(C)c3cc2Cl)C(C)C)cc1 (configuration not stated) | inactive: -8.73% |
| CS(=O)(=O)c1cccc(C(=O)Oc2ccccc2)c1 | inactive: 11.1% |
| COc1ccc(C2C3CCCCC3(O)CCN2C(=O)c2cccs2)cc1 (configuration not stated) | inactive: 13.6% |
| COc1ccc(S(=O)(=O)NC(Cc2cnc[nH]2)C(=O)O)cc1 (configuration not stated) | inactive: -8.95% |
| CCOc1ccc2nc(N/C(N)=N/S(C)(=O)=O)nc(C)c2c1 | inactive: 2.51% |
| CC(C)(C)C(=O)NC(=S)Nc1sc2c(c1C(N)=O)CCC2 | inactive: -6.01% |
| Cc1ccc(S(=O)(=O)N[C@@H](C)C(=O)N2CCC(C(=O)N3CCC[C@H]3C(=O)O)CC2)cc1 | inactive: 10.6% |
| C=CC1=C(C(=O)O)N2C(=O)C(NC(=O)Cc3ccccc3)C2SC1 (configuration not stated) | inactive: -7.86% |
